Results are given in words; binding and its absence hold for the method and conditions named. In cells and extracts the contact can be indirect. Here binding means that the protein was enriched with, or labelled near, the bait; the list need not be complete.
What follows are substances tested against INTS10-C2S (human) (UniProt Q9NVR2) (assay: affinity purification with mass spectrometry).

The chains behind the UniProt entries cited, without tags or fusion partners. Where a name states a change or a piece, a line headed by the entry shows the natural chain unless it says otherwise. Residues count along the entry.
UniProt Q9NVR2: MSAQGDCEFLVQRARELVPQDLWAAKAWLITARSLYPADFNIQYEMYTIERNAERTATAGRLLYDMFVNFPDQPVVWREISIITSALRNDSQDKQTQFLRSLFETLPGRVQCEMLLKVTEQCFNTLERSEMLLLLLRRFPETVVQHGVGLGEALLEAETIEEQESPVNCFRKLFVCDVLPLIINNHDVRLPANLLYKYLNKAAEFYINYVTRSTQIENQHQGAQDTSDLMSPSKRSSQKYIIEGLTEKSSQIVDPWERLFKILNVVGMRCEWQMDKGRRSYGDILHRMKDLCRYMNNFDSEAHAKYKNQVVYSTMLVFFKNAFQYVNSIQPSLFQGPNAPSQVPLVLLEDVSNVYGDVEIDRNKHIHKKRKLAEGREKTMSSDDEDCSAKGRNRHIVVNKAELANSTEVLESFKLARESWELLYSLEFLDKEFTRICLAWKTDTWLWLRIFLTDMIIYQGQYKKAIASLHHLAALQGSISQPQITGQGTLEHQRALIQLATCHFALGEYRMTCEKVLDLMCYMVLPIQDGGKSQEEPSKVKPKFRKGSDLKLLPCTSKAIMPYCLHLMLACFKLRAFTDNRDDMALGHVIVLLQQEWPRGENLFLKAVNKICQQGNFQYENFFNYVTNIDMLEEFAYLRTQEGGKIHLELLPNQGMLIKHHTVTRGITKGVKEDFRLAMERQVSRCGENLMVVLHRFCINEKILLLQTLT
UniProt Q6P9B9: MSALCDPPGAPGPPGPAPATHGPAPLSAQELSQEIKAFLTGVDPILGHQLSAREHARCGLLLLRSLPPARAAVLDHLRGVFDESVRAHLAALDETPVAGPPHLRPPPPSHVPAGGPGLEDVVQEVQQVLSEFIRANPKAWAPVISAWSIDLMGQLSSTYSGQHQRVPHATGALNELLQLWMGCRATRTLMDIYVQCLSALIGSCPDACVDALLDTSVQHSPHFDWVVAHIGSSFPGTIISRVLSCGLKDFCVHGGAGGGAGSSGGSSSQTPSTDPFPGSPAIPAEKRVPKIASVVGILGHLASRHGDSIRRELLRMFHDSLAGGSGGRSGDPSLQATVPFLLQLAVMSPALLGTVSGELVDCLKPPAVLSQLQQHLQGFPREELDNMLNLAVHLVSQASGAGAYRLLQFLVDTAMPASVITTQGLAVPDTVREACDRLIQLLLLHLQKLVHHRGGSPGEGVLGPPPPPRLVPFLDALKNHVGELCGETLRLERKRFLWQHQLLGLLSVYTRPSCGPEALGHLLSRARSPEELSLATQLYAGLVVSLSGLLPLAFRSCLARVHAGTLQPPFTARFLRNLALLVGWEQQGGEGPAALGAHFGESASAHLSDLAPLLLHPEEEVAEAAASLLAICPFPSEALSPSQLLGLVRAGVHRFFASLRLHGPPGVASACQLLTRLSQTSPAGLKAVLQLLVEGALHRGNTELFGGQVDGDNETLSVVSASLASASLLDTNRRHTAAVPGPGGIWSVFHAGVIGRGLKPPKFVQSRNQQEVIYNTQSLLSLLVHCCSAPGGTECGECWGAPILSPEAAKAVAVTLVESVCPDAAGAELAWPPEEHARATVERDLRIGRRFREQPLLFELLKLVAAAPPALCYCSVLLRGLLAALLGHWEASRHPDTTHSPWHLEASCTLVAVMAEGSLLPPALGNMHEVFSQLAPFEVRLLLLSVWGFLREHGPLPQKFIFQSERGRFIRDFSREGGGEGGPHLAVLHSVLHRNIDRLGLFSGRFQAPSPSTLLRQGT
UniProt Q68E01: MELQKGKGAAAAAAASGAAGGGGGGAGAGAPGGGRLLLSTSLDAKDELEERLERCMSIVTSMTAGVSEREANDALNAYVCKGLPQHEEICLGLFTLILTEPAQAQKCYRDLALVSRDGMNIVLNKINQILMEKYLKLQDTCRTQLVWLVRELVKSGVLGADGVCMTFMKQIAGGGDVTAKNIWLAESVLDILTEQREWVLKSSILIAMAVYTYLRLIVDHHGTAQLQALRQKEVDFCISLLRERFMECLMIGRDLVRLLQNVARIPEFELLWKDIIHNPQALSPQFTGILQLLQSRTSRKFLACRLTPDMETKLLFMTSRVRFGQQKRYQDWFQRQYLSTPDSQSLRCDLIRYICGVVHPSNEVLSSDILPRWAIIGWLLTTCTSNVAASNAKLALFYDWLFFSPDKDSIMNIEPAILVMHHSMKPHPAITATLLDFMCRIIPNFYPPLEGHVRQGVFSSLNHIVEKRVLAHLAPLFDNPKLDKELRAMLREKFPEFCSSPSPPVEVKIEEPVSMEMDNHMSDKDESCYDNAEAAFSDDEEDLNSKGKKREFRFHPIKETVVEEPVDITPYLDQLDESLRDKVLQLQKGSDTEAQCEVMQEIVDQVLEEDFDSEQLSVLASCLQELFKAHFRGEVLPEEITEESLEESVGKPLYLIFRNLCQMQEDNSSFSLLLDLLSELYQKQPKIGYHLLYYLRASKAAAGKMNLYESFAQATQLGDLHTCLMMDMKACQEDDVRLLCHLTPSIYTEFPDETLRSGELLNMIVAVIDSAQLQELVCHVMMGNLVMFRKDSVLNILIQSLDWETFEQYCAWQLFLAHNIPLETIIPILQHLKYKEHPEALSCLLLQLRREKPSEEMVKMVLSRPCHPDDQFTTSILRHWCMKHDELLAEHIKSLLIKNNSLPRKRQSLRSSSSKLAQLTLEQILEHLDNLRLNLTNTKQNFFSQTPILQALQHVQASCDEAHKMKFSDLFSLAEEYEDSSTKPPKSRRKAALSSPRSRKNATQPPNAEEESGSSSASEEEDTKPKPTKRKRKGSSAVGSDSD
UniProt Q9NVM9: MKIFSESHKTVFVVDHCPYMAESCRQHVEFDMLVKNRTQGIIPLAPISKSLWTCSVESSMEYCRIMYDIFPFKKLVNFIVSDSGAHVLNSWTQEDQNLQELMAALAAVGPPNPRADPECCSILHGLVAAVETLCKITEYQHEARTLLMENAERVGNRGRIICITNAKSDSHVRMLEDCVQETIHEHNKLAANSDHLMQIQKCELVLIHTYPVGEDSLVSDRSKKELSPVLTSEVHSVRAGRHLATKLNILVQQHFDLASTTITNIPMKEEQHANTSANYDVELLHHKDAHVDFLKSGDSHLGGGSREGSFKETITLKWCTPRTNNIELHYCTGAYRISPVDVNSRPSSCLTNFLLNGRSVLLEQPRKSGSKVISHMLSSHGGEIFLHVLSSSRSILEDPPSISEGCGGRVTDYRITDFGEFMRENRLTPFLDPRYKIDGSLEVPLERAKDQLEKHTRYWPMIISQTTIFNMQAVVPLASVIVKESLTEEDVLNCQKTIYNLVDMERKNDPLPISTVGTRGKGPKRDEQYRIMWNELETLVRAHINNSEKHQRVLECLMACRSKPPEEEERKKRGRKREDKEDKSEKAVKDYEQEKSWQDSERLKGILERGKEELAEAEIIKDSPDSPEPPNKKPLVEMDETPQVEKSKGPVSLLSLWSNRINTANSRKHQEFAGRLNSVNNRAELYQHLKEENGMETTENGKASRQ
2SC-INTS13ΔC: residues 1-648 of Q9NVM9
UniProt P67775: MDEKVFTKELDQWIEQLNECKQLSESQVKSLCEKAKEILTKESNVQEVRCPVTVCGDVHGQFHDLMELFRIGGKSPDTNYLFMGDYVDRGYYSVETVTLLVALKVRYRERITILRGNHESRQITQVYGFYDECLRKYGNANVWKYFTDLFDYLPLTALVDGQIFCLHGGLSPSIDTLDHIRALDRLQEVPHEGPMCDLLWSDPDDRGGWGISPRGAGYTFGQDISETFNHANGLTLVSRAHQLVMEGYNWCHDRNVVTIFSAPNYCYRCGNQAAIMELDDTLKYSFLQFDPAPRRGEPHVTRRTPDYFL
UniProt Q96HW7: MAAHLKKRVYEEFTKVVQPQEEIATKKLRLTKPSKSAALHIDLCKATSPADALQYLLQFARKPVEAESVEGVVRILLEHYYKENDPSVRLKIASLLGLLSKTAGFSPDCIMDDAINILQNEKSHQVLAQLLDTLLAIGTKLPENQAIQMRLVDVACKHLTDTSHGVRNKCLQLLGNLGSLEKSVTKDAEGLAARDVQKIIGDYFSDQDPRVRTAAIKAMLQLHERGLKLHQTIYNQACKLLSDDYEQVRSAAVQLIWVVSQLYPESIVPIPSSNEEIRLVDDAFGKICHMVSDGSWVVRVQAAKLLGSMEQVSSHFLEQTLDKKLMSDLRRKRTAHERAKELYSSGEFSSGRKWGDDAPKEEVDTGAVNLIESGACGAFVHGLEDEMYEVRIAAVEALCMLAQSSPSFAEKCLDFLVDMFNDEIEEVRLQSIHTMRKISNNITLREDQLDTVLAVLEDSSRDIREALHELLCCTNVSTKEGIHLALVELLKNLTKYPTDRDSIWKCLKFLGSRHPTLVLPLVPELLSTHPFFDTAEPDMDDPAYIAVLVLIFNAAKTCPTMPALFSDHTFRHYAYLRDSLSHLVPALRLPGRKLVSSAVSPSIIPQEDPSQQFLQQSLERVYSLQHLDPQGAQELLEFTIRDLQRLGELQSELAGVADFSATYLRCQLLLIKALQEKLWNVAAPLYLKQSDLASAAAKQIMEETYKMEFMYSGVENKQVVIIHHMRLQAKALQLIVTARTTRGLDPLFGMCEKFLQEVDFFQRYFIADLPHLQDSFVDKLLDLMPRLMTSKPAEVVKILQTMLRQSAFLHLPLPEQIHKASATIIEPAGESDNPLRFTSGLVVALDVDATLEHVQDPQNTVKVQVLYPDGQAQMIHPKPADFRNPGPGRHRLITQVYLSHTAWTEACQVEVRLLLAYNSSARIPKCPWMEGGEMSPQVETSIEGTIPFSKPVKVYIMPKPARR
UniProt Q96SY0: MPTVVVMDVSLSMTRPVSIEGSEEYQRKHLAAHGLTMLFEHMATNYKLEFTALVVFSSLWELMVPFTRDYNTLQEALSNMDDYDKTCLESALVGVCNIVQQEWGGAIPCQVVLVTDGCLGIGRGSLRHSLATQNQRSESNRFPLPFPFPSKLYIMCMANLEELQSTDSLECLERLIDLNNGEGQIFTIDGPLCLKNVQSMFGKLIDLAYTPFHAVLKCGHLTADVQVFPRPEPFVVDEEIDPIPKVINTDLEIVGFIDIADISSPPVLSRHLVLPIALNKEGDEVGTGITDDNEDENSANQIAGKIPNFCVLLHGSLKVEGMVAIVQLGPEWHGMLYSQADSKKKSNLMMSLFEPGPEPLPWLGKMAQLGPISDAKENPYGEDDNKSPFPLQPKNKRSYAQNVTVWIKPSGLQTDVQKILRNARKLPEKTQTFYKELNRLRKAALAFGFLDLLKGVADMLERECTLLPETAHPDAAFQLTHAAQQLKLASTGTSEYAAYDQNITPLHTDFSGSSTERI
UniProt Q04726: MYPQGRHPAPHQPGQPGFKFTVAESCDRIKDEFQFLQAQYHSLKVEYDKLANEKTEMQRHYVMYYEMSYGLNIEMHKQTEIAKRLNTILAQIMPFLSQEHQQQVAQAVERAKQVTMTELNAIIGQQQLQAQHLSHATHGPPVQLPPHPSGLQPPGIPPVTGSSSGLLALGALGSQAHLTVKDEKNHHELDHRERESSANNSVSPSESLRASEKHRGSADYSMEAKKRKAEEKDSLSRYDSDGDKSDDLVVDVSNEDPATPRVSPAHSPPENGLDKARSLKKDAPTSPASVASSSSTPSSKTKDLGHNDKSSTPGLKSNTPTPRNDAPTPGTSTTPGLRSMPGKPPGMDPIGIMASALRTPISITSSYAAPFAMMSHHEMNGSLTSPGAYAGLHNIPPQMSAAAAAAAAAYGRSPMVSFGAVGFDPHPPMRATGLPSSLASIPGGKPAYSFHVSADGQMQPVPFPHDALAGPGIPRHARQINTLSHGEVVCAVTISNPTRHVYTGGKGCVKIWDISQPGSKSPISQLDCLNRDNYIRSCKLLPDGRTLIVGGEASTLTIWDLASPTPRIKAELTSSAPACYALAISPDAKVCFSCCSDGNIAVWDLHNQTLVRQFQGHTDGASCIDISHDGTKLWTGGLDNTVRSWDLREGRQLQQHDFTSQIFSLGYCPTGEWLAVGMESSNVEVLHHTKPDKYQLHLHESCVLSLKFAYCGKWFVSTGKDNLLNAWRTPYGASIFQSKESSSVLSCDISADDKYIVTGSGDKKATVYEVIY
UniProt Q8NBZ0: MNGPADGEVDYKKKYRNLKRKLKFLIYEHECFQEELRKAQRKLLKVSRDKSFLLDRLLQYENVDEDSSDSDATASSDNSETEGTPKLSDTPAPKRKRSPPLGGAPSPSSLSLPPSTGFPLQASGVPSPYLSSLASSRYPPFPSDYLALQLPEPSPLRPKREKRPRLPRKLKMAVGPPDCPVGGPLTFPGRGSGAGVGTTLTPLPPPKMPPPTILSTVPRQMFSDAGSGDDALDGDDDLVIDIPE

Substance	binding
INTS11 (from UniProt Q5TA45 1-600)	binds
INTS5 (from UniProt Q6P9B9 1-1019)	binds
INTS3 (from UniProt Q68E01 1-1043)	binds
INTS13 (from UniProt Q9NVM9 1-706)	binds
INTS2 (from UniProt Q9H0H0 1-1196)	binds
PP2Ac (from UniProt P67775) (enzyme)	binds
ZNF608 (from UniProt Q9ULD9 1-1512)	binds
INTS8 (from UniProt Q75QN2 1-995)	binds

Continued, values first:

binding	Substance
binds	INTS4 (from UniProt Q96HW7 1-963)
binds	INTS15 (from UniProt Q96N11 1-449)
binds	INTS7 (from UniProt Q9NVH2 1-962)
binds	INTS9 (from UniProt Q9NV88 1-658)
binds	INTS6 (from UniProt Q9UL03 1-887)

What follows are substances tested against 2SC-INTS13ΔC (human) (UniProt Q9NVM9) (assay: affinity purification with mass spectrometry).

Substance	binding
INTS10 (from UniProt Q9NVR2 1-710)	binds
TLE1 (from UniProt Q04724 1-770)	binds
INTS14 (from UniProt Q96SY0 1-518)	binds
TLE3 (from UniProt Q04726 1-772)	binds
ZNF608 (from UniProt Q9ULD9 1-1512)	binds

Second part, the substance after the results:

binding	Substance
binds	INO80E (from UniProt Q8NBZ0 1-244)
binds	INTS15 (from UniProt Q96N11 1-449)

— paper doi:10.1101/2024.01.24.576984
